No constants are given. Whether binding was seen depends on the method and setting. Some results given as binding are weak or reduced against the parent protein; the word gives no strength. For some assays here: Sequences can lack the tags named with a protein.
T1: Saccharomyces cerevisiae Csm3 (CBP-tagged) (S. cerevisiae) (UniProt Q04659)
T1 sequence: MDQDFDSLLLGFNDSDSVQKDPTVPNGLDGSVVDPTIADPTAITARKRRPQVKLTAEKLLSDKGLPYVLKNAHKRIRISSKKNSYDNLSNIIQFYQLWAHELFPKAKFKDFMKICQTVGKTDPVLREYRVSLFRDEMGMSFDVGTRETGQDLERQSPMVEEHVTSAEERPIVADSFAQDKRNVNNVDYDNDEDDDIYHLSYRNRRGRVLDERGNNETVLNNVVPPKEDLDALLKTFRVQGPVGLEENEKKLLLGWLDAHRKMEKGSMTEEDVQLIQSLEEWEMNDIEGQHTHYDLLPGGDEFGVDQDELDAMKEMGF

Sequences of proteins named here, by UniProt entry; tags and fusion partners are left off. A change or cut given only in a name is not applied to a line headed by its entry.
UniProt P49735: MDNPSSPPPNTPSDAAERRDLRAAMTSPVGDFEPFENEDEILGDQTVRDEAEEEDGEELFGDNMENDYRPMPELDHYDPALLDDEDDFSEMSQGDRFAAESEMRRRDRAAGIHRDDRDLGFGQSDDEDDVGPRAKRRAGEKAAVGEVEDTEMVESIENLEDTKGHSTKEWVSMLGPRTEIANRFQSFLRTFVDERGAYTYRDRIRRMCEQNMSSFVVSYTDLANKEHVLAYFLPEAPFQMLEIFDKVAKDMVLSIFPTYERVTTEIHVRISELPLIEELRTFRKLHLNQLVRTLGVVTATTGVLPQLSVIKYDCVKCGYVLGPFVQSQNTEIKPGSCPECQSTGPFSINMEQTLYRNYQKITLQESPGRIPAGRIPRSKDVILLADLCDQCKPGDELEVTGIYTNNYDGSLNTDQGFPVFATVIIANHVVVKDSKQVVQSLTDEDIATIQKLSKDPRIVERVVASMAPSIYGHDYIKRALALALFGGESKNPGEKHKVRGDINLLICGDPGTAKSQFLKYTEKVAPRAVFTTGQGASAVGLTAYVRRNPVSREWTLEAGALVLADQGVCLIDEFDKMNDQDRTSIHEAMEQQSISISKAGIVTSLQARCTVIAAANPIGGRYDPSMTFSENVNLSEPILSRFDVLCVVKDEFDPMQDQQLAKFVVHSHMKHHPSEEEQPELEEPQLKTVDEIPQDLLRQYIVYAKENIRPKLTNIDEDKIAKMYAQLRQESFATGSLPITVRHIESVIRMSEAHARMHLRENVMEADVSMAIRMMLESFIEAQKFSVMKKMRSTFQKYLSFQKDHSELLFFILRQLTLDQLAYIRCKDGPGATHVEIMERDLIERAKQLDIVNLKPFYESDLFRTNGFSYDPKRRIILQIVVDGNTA
UniProt Q9XYU1: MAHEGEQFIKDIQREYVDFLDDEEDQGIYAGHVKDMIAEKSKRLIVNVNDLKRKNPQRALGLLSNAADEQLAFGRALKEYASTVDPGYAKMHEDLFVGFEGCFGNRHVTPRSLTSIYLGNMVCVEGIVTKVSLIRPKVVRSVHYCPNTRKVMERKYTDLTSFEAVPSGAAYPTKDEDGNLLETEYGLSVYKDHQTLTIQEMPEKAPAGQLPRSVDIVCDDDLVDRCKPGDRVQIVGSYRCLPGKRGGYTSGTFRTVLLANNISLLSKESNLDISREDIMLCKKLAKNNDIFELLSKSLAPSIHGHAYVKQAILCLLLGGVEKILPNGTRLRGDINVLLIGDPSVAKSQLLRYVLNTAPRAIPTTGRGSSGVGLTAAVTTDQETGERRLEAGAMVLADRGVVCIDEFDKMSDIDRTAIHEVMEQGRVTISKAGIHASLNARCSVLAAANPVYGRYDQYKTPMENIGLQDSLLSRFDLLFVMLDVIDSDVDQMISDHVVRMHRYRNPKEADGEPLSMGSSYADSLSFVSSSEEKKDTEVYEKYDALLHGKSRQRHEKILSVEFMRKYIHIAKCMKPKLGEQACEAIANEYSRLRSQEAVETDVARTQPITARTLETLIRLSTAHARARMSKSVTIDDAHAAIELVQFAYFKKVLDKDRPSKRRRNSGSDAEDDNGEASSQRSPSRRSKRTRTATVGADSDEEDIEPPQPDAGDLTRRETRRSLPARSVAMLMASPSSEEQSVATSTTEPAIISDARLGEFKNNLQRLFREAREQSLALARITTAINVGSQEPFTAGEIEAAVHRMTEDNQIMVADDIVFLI
UniProt Q26454: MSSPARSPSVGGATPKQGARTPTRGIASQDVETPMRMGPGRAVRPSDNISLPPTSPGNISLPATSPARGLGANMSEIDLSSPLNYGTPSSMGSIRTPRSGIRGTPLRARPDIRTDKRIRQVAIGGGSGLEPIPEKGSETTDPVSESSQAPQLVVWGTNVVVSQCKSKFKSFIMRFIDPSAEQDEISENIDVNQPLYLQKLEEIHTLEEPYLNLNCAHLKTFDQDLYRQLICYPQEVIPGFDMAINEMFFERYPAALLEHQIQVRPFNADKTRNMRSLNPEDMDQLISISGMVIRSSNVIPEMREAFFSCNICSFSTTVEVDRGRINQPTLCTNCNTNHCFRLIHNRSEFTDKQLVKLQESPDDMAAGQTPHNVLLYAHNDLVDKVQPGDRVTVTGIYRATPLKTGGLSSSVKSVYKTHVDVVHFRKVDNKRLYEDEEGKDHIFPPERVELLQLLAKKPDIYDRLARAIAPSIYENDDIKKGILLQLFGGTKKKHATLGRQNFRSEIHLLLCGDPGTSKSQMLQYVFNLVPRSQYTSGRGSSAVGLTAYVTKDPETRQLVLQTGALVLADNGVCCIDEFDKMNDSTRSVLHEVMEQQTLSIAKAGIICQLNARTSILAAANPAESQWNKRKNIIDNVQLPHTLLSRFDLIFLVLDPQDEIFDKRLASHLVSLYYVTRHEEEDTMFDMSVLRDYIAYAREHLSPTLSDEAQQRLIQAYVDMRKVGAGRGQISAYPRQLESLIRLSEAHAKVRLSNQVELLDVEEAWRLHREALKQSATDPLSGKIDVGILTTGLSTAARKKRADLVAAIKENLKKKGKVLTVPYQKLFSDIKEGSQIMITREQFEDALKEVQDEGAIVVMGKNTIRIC
UniProt Q9VGW6: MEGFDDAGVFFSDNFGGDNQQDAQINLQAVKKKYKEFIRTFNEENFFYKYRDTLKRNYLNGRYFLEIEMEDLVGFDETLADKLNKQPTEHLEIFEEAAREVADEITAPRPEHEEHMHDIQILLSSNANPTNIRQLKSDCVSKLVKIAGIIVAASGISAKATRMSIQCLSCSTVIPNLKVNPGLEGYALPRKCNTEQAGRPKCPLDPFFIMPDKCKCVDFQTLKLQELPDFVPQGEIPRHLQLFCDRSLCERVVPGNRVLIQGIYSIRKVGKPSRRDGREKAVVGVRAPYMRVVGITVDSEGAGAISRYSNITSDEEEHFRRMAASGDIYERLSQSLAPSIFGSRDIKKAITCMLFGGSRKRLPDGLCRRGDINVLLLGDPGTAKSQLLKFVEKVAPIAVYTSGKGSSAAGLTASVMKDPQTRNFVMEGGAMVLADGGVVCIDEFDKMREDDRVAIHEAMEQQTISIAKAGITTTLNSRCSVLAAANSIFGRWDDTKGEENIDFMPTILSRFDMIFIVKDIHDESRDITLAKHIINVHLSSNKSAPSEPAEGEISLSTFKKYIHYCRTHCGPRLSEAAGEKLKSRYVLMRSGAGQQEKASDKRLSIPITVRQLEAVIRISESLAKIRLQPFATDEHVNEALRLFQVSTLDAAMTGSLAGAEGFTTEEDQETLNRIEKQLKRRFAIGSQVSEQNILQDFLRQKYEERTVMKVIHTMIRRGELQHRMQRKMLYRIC
UniProt Q9V461: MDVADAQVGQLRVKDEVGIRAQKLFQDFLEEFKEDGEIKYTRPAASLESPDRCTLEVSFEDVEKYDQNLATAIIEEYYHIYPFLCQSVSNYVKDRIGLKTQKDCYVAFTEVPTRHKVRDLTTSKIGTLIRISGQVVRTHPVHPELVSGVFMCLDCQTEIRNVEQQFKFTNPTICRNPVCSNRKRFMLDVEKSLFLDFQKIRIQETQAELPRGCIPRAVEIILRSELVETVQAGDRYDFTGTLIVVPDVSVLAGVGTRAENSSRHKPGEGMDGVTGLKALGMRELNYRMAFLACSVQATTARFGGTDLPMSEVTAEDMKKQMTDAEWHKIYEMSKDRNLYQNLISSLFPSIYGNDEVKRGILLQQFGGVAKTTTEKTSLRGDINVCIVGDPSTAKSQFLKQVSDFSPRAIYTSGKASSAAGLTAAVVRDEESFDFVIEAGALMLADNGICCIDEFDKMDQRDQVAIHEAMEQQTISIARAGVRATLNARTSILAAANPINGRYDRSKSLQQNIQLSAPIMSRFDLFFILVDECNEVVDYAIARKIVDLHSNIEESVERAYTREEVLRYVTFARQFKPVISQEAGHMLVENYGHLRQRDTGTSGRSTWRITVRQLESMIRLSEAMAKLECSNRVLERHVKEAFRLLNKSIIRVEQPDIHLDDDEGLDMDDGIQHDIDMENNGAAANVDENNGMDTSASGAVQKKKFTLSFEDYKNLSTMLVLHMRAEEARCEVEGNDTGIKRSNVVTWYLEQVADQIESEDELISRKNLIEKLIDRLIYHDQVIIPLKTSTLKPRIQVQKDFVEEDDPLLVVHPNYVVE
UniProt Q9XYU0: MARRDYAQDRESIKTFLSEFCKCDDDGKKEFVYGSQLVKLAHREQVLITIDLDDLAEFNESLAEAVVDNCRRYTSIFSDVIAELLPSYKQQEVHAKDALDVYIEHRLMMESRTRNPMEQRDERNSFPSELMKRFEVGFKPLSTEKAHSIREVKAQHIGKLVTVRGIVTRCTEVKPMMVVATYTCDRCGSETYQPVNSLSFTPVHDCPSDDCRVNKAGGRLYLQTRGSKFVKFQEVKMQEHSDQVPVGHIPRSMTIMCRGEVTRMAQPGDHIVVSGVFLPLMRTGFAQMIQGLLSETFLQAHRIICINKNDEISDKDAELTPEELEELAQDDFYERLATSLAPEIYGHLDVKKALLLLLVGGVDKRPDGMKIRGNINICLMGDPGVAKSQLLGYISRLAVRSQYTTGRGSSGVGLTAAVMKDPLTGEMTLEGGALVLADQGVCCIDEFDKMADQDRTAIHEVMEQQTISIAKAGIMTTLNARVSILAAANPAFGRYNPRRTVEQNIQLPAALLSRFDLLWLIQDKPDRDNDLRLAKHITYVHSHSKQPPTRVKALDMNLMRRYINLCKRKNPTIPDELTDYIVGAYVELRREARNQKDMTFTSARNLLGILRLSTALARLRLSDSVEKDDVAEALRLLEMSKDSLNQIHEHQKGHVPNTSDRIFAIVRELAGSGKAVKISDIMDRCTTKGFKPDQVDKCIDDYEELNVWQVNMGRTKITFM

B1: Saccharomyces cerevisiae Tof1 (protein, UniProt P53840 1-1238)
chain: MSADLQQGTTNAADFSLTVLRARIALLATAIGGPDYTSQIDPPPYKLGDDCLACLKDLKRWFKLVDDQQKRWDVAMAVAEYRILTDDLLPILIDWENKCSLAAKLAKNNPDHEEFRNKAYYDKIALNCLQLLVLMTWPLIVTEQSSSNQITLYGELKKHQLVYKKTILSMESGKVLRAAIRLALDVIKIDRLSRTPRDNMVLKLVLNFFRNVIAIEPGEFTINTKKSMPKKGITSIDTLPPNVSMDDISLNTVISSFHKNKVFGFLLTLTSSLSKEFDQDFINIPLLEIMFYFTKDVNQELLFPRQFETGTHSKVVNKNESSSANNIVTSAGFELSKLLQKEHQMRKNVIKHTSARHSRFGGLLSIQTPDKTRLTVSGSQALVDEKIALQKLDDSKKWNKRIIKKHQSVAAEGLPNSLLNSQTGKAIFFTESNGKHFKEFINNFIDSGFNILLHSVTNYFTTEQDRMVTLEQVEYLLFFAWFVKYQLLRSKIDNSADIKQVSEALKEVTFILVSSLLRSAYDLKNWTVTHAGMIAFNELLNLVSRTKAAQEEDSTDIEFIVSRLFSDERIQLLSNLPKIGSKYSLQFMKSCIELTHSVLKVLEQYSDDKTLVIEGKSRRQKKFNISEGDITKLIEEENVDRDEALDILTSSLRSIEVNFQKVQANYMTEPVIETYINFLERFRELEDDSIKKVFSFFHRVFVQAKEQALLFRFDLIILLREMLSPDGLDRMSRSRKYVSQFSDYFLARLKKRLKKSPAWFVGLLFPPLHNSEVGFYQRYGEYNVLNNESMYAAPASQFKPIPDEEALPPSILLDMKYGVLVSTLLDDGKTELLDQLLKHITHTLDIFKSWLTVNVNAGKETVNPPNEYFTLTGVLNNDPIFKDKDYRALLLLIGYSIPRKINEPCFLPGTVEVSDLTVSCELVKKYLSTPFETPNGLPSSSYLLRVRSEKDSFSHNEQDGWEGDDDYDYNDPYIVPDDQILSKSDAAYFKDLDNNASDKLKGTKFSKGIARSKKKDKRKRRKGEAKTNLPMFGDQDDERPQTVRERHGVFSKEFISDSEDDEDLMNPIFFENETYMRWLLDKNNGQLTEDRYIQFAKFAAERMNNGGVVTGDYTSLFGGSIPSIESIRATESSSFAPDKSLISLASHVASEMSIFDVNNNNNNQLSDDDVNSESRNSLGSSQPSNSQNMFQSEVYSRKESTKRSLEASAADESDEDEEAIRLFGKKSRVVLSQGDSDD
B2: Drosophila melanogaster Cdc45 (protein, UniProt O96989 1-575)
chain: MFVQDLRNDFYRQLVGKRILIVVNYDIDAICASRILQALFKYDHMLYTVVPIMGVTGLKRAYGEHQGDVKYVVLVNCGGCVDIVELLQPSDDVTFFICDSHRPLDVCNIYSDRQVCILGDASLEENIPAFETIFYDSEGEDEDEDESSDTEQQHDDSGAGESDQEDQAPRSRKLSRLERHEQRILKQRARRQWESERDRIMFEYTQFSYYGRSAALMVFELAWKLSKDNMDLLWWAIVGITEQLLLGKIESGAYTLELEQIQSHVSRLTNKTNDQNTMSASKITFENDLHLVLYRHWPVTESMRYSRYSSCQLKLWTLRGEKRLHELLLEMGLPLVHARQTYGAMDLVLRKEFFSMVERLAEKYDIADIVYGTFTLSYGYRSRYAAADYVYALLAIMESVKKHKTPEDCFLEASDALSRQHKQLLSAGIDQAKLLHAAVFRQVQSSLEARQVHSAGSFFYYVLQEEHAFFSYPYALGLLARFLLRGHVATSRARQASDLPLIASCPLNASEGMCLLVGIVPVREDSPRNFFGKAFEQAAQKSGVALLQDFFEPAVVQLRQSDLTRFLDSLTVLLA

Columns and labels:
[1] = molecular target: T1, Saccharomyces cerevisiae Csm3 (CBP-tagged) (S. cerevisiae); experiment: co-purification (calmodulin affinity resin, gel filtration); Csm3 and Tof1 co-expressed in yeast; lysate on Calmodulin Affinity Resin with 2 mM CaCl2, eluted with EDTA/EGTA, then Superdex 200
[2] = molecular target: Drosophila melanogaster MCM complex (Mcm2-3-4-5-6-7 hetero-hexamer) (Drosophila melanogaster) (UniProt P49735+Q9XYU1+Q26454+Q9VGW6+Q9V461+Q9XYU0); experiment: cryo-EM structure; Drosophila CMG fork-affinity purified on a DNA fork with two leading-strand M.HpaII roadblocks, eluted with 5 mM ATP; four states (1A, 1B, 2A, 2B), 3.70-4.46 Å; both purified

Row | Binder | binding [1] | binding [2]
1 | B1 | binds | 
2 | B2 |  | binds

From PMC6737378, “Molecular Basis for ATP-Hydrolysis-Driven DNA Translocation by the CMG Helicase of the Eukaryotic Replisome” (Cell Reports, 2019)
